Results from PMC4809290.
Results are given in words; binding and its absence hold for the method and conditions named. For some assays here: In cells and extracts the contact can be indirect. Some binding calls cover weakened binding; strength is not graded here. Where a sequence is shown, tags or fusion partners need not be part of it.

Chains of the proteins cited; added tags and fusions are not shown.
UniProt O49687: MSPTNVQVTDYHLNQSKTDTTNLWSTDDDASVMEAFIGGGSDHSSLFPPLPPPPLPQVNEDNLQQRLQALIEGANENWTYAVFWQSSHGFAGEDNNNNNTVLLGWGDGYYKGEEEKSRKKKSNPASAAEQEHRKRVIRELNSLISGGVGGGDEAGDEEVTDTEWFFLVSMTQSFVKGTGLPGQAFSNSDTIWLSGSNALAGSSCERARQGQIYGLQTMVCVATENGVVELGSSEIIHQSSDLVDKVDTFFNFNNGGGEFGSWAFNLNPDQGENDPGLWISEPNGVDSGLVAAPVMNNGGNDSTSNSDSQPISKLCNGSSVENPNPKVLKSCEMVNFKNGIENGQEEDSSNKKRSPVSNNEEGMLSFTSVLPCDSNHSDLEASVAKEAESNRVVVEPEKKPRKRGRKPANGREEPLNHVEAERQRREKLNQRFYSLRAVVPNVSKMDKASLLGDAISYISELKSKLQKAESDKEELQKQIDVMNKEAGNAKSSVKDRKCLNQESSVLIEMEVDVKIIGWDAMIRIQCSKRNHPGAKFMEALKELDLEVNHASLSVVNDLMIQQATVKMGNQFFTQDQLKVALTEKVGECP
UniProt Q9FIP9: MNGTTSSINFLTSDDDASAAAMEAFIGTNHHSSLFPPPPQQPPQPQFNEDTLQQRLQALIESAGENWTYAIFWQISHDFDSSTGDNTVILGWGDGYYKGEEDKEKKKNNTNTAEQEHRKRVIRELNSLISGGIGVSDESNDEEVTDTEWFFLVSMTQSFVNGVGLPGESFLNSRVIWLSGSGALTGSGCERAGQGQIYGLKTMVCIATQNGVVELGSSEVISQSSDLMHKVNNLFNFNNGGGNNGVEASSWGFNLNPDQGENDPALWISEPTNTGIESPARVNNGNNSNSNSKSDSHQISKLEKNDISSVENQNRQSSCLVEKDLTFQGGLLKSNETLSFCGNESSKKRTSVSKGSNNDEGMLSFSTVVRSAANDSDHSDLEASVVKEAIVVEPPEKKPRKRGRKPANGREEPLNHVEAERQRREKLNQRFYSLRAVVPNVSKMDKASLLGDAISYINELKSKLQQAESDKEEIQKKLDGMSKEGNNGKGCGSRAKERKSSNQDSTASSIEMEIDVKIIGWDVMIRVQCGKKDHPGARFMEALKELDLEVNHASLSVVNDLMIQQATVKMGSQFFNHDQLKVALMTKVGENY
UniProt Q39204: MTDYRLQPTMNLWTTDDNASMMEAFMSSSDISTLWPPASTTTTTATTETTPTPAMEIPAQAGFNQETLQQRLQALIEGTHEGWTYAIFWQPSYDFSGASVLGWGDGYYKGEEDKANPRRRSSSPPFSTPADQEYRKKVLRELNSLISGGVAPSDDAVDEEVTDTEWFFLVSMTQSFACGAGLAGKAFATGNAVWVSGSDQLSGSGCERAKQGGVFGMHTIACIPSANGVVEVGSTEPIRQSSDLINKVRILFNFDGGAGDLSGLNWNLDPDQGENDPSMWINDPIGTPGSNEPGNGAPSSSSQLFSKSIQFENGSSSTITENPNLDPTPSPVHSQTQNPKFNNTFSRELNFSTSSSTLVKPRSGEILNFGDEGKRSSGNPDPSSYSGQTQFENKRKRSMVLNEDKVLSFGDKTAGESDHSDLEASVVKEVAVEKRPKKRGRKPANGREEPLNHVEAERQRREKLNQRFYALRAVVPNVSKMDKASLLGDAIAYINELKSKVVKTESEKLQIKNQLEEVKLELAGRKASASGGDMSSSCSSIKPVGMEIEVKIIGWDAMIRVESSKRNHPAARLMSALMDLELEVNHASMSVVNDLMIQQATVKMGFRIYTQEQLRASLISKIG

T1: JAZ8 with C-terminal YFP tag (Arabidopsis thaliana (accession Col-0)) (UniProt Q8LBM2)
T1 sequence: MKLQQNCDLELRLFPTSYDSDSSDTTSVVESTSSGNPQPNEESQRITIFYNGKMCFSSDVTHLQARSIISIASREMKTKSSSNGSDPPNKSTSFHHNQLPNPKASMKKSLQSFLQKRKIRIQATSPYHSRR

T2: TOPLESS (TPL), yeast two-hybrid fusion (Arabidopsis thaliana (accession Col-0)) (UniProt Q94AI7)
T2 sequence: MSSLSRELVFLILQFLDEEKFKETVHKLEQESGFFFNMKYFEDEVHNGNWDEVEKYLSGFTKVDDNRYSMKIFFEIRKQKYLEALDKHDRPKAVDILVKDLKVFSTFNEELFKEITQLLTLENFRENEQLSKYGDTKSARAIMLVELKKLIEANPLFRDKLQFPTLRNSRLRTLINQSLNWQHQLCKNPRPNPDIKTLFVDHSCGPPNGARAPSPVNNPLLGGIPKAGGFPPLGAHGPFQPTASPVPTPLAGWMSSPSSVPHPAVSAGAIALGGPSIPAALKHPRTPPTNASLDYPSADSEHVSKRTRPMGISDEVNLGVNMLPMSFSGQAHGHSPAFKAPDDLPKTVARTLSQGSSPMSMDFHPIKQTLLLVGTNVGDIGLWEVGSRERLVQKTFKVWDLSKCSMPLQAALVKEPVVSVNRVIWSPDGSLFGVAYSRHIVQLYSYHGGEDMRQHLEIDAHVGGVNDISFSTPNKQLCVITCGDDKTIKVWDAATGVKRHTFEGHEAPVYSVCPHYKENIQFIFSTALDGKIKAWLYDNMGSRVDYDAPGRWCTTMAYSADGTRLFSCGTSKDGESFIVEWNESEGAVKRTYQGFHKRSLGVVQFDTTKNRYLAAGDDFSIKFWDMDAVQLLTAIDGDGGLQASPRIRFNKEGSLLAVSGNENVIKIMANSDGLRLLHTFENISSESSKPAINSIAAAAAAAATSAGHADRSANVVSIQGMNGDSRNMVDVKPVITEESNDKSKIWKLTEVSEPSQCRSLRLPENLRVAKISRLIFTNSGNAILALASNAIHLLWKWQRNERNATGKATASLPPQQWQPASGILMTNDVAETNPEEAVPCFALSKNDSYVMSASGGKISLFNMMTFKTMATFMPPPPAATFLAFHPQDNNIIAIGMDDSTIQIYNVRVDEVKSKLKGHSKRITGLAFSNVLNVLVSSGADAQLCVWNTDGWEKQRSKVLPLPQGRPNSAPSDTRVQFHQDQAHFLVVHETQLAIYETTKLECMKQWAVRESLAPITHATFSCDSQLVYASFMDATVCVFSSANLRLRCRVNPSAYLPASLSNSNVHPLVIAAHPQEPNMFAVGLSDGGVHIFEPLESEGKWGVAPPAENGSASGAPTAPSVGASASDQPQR


What was measured:
[1] = target: T1, JAZ8 with C-terminal YFP tag (Arabidopsis thaliana (accession Col-0)); assay: co-IP; transient expression in N. benthamiana leaves, harvested 2 d post-inoculation; total protein extracts incubated with GFP-affinity matrix (Chromotek); immunoblots with anti-GFP and anti-c-Myc
[2] = target: T2, TOPLESS (TPL), yeast two-hybrid fusion (Arabidopsis thaliana (accession Col-0)); assay: two-hybrid; Clontech Matchmaker system, yeast strain AH109; vectors derived from pGADT7 and pGBKT7; selective SD-Leu-Trp-His or SD-Leu-Trp-His-Ade media
[3] = target: MYC4, yeast two-hybrid fusion (Arabidopsis thaliana (accession Col-0)) (UniProt O49687); assay: as above
[4] = target: MYC3, yeast two-hybrid fusion (Arabidopsis thaliana (accession Col-0)) (UniProt Q9FIP9); assay: as above
[5] = target: MYC2, yeast two-hybrid fusion (Arabidopsis thaliana (accession Col-0)) (UniProt Q39204); assay: as above

binding [1]	binding [2]	binding [3]	binding [4]	binding [5]	Binder
binds					TOPLESS (TPL) with C-terminal 4xMyc tag (protein, UniProt Q94AI7 1-1131) MSSLSRELVFLILQFLDEEKFKETVHKLEQESGFFFNMKYFEDEVHNGNWDEVEKYLSGFTKVDDNRYSMKIFFEIRKQKYLEALDKHDRPKAVDILVKDLKVFSTFNEELFKEITQLLTLENFRENEQLSKYGDTKSARAIMLVELKKLIEANPLFRDKLQFPTLRNSRLRTLINQSLNWQHQLCKNPRPNPDIKTLFVDHSCGPPNGARAPSPVNNPLLGGIPKAGGFPPLGAHGPFQPTASPVPTPLAGWMSSPSSVPHPAVSAGAIALGGPSIPAALKHPRTPPTNASLDYPSADSEHVSKRTRPMGISDEVNLGVNMLPMSFSGQAHGHSPAFKAPDDLPKTVARTLSQGSSPMSMDFHPIKQTLLLVGTNVGDIGLWEVGSRERLVQKTFKVWDLSKCSMPLQAALVKEPVVSVNRVIWSPDGSLFGVAYSRHIVQLYSYHGGEDMRQHLEIDAHVGGVNDISFSTPNKQLCVITCGDDKTIKVWDAATGVKRHTFEGHEAPVYSVCPHYKENIQFIFSTALDGKIKAWLYDNMGSRVDYDAPGRWCTTMAYSADGTRLFSCGTSKDGESFIVEWNESEGAVKRTYQGFHKRSLGVVQFDTTKNRYLAAGDDFSIKFWDMDAVQLLTAIDGDGGLQASPRIRFNKEGSLLAVSGNENVIKIMANSDGLRLLHTFENISSESSKPAINSIAAAAAAAATSAGHADRSANVVSIQGMNGDSRNMVDVKPVITEESNDKSKIWKLTEVSEPSQCRSLRLPENLRVAKISRLIFTNSGNAILALASNAIHLLWKWQRNERNATGKATASLPPQQWQPASGILMTNDVAETNPEEAVPCFALSKNDSYVMSASGGKISLFNMMTFKTMATFMPPPPAATFLAFHPQDNNIIAIGMDDSTIQIYNVRVDEVKSKLKGHSKRITGLAFSNVLNVLVSSGADAQLCVWNTDGWEKQRSKVLPLPQGRPNSAPSDTRVQFHQDQAHFLVVHETQLAIYETTKLECMKQWAVRESLAPITHATFSCDSQLVYASFMDATVCVFSSANLRLRCRVNPSAYLPASLSNSNVHPLVIAAHPQEPNMFAVGLSDGGVHIFEPLESEGKWGVAPPAENGSASGAPTAPSVGASASDQPQR
	binds	binds	binds	binds	JAZ8, yeast two-hybrid fusion (protein, UniProt Q8LBM2 1-131) MKLQQNCDLELRLFPTSYDSDSSDTTSVVESTSSGNPQPNEESQRITIFYNGKMCFSSDVTHLQARSIISIASREMKTKSSSNGSDPPNKSTSFHHNQLPNPKASMKKSLQSFLQKRKIRIQATSPYHSRR
